This is one part of the list.
Tests used:
Assay in all cases: log2 fold change, soluble protein after heating vs DMSO (PISA); higher = thermal stabilisation; K562 cells, 10 uM, 30 min; active = over 0.2 and 3.5 SD of the protein, either way, in both replicates (recomputed)
[1] = compound: CC[C@@H]1C(=O)N(C)c2cnc(Nc3ccc(C(=O)NC4CCN(C)CC4)cc3OC)nc2N1C1CCCC1
Method in brief: (§1)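 K562 cells (2×10^6 cells/mL) were treated with 10 μM compound for 30 min, and aliquots were heated for 3 min over 48°C-58°C. Pooled aliquots were extracted in PBS with 0.5% NP-40 at 4°C, and the supernatant after 21,000xg for 90 min was measured by TMTpro 16plex LC-MS/MS with channel sums equalised. Reported thermal stability, relative to control samples and from duplicates, is a log2 fold change.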

Protein sequences, listed by entry. Tags and fused reporters are not part of them. Lines headed by an entry give the natural chain unless they say otherwise; changes in a name come on top.
UniProt P52565: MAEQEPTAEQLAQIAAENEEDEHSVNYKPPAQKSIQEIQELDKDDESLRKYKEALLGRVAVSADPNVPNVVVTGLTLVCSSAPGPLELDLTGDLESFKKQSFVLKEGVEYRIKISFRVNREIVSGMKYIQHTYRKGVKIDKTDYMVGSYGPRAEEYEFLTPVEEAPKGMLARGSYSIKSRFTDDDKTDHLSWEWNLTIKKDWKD
UniProt Q9Y6D5: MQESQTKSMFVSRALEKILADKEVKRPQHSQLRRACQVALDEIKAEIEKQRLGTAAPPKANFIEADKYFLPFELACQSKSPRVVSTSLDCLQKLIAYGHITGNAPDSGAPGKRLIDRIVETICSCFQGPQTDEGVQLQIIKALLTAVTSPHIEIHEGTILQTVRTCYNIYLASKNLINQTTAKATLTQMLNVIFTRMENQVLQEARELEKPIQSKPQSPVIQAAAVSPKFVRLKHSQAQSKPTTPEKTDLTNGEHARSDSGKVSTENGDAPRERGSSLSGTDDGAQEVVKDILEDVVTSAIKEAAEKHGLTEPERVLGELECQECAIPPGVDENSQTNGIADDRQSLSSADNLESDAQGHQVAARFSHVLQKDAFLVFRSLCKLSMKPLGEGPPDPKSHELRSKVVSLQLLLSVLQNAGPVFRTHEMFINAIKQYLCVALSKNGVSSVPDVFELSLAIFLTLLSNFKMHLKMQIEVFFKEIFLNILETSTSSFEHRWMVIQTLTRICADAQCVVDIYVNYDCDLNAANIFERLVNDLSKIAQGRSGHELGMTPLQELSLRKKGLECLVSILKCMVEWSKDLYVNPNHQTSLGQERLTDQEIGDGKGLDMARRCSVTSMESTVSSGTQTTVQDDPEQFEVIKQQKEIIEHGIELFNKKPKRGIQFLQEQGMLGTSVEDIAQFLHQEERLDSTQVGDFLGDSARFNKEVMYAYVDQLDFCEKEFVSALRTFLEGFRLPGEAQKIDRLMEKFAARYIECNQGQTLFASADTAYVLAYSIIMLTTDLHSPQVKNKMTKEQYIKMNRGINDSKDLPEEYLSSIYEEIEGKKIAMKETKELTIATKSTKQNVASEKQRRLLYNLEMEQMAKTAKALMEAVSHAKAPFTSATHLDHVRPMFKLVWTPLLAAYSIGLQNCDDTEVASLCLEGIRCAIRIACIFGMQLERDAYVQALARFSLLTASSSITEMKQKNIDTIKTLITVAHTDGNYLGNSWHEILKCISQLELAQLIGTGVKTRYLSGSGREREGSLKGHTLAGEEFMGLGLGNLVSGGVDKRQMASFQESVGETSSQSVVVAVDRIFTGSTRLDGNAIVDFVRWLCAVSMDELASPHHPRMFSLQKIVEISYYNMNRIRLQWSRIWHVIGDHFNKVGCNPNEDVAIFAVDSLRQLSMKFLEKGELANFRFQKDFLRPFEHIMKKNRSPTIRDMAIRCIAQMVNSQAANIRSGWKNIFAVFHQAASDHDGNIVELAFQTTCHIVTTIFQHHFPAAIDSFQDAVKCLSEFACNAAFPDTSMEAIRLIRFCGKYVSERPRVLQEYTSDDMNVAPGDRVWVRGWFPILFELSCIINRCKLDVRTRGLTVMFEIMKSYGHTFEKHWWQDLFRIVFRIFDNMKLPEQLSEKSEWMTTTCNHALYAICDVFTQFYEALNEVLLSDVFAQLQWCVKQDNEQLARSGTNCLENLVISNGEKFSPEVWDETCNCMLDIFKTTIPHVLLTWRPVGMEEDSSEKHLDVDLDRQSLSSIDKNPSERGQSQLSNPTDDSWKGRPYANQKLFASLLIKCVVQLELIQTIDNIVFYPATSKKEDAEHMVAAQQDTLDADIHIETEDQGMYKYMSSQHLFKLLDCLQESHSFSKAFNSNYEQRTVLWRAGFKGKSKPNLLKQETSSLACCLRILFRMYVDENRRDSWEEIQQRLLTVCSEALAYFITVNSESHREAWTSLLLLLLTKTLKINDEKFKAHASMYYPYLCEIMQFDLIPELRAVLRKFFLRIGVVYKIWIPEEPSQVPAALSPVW
UniProt Q9UJX3, whole entry, looked up: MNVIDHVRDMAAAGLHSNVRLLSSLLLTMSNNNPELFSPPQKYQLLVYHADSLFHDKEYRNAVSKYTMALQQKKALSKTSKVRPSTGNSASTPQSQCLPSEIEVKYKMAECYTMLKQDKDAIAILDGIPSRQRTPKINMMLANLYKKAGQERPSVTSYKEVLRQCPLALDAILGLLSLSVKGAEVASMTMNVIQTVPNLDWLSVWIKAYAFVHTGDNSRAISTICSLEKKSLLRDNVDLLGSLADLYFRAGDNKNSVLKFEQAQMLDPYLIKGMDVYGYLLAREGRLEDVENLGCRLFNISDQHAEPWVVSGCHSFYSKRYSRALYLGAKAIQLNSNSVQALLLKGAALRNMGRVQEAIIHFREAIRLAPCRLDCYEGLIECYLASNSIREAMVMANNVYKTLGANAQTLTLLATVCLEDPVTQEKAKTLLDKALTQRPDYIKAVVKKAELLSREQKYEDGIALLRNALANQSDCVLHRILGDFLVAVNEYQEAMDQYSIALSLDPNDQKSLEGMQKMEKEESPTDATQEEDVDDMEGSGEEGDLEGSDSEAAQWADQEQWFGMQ
UniProt Q8WVL7: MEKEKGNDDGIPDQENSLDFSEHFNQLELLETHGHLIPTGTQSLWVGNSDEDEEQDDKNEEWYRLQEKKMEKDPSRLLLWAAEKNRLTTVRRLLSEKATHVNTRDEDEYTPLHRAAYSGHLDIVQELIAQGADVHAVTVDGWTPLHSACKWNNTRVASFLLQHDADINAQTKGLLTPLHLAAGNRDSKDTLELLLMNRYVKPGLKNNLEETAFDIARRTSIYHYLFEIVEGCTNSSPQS
UniProt P48444: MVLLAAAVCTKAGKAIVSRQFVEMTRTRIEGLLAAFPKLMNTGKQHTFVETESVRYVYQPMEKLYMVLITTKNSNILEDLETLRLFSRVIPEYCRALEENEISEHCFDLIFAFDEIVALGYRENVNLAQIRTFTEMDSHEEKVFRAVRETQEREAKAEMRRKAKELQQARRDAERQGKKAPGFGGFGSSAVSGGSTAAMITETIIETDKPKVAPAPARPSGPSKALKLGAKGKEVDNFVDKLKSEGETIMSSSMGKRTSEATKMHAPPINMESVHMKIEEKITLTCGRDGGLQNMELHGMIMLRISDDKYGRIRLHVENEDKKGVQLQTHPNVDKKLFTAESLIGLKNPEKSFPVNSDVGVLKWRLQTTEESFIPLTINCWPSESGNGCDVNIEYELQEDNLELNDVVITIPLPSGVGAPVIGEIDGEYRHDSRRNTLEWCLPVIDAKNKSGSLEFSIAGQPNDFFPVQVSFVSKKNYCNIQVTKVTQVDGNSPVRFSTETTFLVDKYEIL
UniProt P07741: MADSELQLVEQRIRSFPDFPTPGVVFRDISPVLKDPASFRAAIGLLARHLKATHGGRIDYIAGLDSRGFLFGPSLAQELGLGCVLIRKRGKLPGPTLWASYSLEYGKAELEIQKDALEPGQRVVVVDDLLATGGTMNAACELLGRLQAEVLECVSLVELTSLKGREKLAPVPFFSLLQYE
UniProt P02649, whole entry, looked up: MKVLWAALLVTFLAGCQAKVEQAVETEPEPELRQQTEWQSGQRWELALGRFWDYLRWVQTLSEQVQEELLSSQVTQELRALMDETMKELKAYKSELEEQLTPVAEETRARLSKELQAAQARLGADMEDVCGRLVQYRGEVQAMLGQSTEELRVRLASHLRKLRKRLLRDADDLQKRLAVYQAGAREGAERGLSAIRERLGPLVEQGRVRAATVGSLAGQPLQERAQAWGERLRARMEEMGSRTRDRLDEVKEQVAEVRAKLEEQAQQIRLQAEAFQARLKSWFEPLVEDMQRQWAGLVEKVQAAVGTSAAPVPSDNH
UniProt P02654: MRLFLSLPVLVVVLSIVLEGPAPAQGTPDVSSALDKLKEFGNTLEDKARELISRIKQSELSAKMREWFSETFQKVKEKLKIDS
UniProt Q8IWZ3: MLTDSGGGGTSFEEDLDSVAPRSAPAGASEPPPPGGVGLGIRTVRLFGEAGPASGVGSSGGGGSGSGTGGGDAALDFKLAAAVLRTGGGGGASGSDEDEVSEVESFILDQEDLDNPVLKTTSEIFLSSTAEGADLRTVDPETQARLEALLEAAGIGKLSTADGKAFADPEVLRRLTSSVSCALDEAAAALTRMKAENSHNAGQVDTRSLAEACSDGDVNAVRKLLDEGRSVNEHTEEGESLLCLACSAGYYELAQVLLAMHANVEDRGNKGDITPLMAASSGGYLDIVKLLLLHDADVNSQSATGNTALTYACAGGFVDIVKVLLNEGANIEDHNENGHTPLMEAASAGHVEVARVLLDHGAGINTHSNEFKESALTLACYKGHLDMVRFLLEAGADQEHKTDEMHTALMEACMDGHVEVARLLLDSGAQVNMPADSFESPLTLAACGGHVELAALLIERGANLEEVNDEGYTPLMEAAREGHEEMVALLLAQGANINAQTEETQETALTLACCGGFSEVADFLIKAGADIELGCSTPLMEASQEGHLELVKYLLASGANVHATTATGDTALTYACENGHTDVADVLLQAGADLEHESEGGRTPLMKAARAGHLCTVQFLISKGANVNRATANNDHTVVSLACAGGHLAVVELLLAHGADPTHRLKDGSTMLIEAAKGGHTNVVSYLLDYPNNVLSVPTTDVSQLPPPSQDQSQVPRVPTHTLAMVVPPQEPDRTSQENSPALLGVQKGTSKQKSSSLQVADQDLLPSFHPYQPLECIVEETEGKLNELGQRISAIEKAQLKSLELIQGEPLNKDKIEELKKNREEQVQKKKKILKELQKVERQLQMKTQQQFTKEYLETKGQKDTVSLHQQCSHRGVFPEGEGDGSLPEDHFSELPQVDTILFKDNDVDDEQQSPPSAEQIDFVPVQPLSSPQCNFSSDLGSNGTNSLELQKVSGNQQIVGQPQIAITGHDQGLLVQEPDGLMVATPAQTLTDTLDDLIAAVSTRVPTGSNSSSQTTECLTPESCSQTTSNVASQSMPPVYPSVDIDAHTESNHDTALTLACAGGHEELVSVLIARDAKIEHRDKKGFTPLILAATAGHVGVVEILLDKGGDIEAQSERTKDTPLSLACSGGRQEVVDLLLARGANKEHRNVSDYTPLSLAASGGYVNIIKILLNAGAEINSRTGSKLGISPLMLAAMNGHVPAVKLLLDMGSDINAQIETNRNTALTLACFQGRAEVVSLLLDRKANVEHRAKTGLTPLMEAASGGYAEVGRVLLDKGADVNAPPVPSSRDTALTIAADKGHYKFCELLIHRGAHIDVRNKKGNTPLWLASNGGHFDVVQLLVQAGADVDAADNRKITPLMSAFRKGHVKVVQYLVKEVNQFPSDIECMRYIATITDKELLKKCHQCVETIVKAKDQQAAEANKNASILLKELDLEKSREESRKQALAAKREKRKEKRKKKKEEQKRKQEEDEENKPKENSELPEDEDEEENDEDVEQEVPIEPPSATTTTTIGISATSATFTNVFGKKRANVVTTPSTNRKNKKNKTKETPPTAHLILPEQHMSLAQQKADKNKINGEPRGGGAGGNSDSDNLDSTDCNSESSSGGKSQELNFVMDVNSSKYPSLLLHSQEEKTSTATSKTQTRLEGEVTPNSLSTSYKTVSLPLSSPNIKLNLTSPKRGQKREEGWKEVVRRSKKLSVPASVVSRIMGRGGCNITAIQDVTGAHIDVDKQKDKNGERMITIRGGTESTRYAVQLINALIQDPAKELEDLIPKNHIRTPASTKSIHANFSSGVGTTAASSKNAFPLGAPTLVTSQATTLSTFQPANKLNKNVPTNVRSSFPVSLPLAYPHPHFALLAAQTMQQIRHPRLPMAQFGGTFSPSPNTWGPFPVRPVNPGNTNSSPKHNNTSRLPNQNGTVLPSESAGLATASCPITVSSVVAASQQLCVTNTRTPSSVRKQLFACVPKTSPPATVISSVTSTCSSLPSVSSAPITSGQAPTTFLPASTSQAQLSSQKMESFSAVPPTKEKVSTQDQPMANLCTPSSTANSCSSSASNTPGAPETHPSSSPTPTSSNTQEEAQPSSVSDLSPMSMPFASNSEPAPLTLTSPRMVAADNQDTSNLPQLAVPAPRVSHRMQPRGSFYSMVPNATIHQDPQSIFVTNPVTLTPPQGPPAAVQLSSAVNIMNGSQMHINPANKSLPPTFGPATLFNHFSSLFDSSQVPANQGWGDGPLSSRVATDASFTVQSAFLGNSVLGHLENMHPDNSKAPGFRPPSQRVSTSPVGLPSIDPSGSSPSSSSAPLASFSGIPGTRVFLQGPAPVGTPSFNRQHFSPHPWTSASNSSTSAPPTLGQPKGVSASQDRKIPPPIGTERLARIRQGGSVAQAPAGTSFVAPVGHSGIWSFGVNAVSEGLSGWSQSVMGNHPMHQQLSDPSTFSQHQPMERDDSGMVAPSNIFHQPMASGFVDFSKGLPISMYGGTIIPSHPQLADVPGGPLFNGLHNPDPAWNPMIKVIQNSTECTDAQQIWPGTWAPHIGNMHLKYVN

volasertib = compound: CC[C@@H]1C(=O)N(C)c2cnc(Nc3ccc(C(=O)N[C@H]4CC[C@H](N5CCN(CC6CC6)CC5)CC4)cc3OC)nc2N1C(C)C [volasertib]
Method in brief: as §1

[2] = compound: CC[C@H](C)N1C=C(C2=C(C=C(C=C21)C3=CN=C(C=C3)N4CCNCC4)C(=O)NCC5=C(C=C(NC5=O)C)C)C
Method in brief: as §1

epoxomicin = compound: CC[C@H](C)[C@@H](C(=O)N[C@@H]([C@@H](C)O)C(=O)N[C@@H](CC(C)C)C(=O)[C@]1(CO1)C)NC(=O)[C@H]([C@@H](C)CC)N(C)C(=O)C [epoxomicin]
Method in brief: as §1

[3] = compound: CCn1c(C(=O)N(C2CC2)C2CC2)cc2c3c(ncn3C)c(Nc3cc(C)n(C)n3)nc21
Method in brief: as §1

[4] = compound: CCn1cc(-c2ccnc3[nH]c(-c4cccc(CN(C)C)c4)cc23)c(-c2ccc(NC(=O)N(C)C)cc2)n1
Method in brief: as §1

[5] = compound: CN(C)CC(=O)Nc1ccc2[nH]c(=O)c3ccccc3c2c1
Method in brief: as §1

rosiglitazone = compound: CN(CCOC1=CC=C(C=C1)C[C@H]2C(=O)NC(=O)S2)C3=CC=CC=N3 (racemic) [rosiglitazone]
Method in brief: as §1

[6] = compound: CN1C2=C(C3=C1C(=O)N(N=C3)CC4=CC(=CC=C4)N)SC(=C2)S(=O)C
Method in brief: as §1

[7] = compound: CN1CCC(CNc2ccc3ncc(-c4cccc(OC(F)(F)F)c4)n3n2)CC1
Method in brief: as §1

Measured: log2 fold change

ARHGDIA (UniProt P52565)
inactive: [1] -0.014 | volasertib -0.024 | [2] 0.027 | epoxomicin 0.023 | [3] -0.001 | [4] -0.003 | [5] 0.079 | rosiglitazone 0.024 | [6] -0.06 | [7] -0.004

ARFGEF2 (UniProt Q9Y6D5)
inactive: [1] -0.065 | volasertib -0.197 | [2] 0.023 | epoxomicin -0.008 | [3] -0.04 | [4] 0.011 | [5] 0.015 | rosiglitazone 0.043 | [6] -0.03 | [7] -0.124

ANAPC7 (UniProt Q9UJX3)
inactive: [1] -0.039 | volasertib -0.105 | [2] 0.041 | epoxomicin 0.025 | [3] 0.001 | [4] -0.049 | [5] 0.009 | rosiglitazone 0.011 | [6] 0.01 | [7] 0.021

AP3S1 (UniProt Q92572)
inactive: [1] 0.017 | volasertib -0.187 | [2] 0.055 | epoxomicin 0.022 | [3] -0.057 | [4] 0.01 | [5] 0.002 | rosiglitazone 0.037 | [6] 0.006 | [7] -0.05

2 successive entries from above, for reference:
ARHGDIA (UniProt P52565)
inactive: [1] -0.014 | volasertib -0.024 | [2] 0.027 | epoxomicin 0.023 | [3] -0.001 | [4] -0.003 | [5] 0.079 | rosiglitazone 0.024 | [6] -0.06 | [7] -0.004

ARFGEF2 (UniProt Q9Y6D5)
inactive: [1] -0.065 | volasertib -0.197 | [2] 0.023 | epoxomicin -0.008 | [3] -0.04 | [4] 0.011 | [5] 0.015 | rosiglitazone 0.043 | [6] -0.03 | [7] -0.124

More records follow.

ANKRD49 (UniProt Q8WVL7)
inactive: [1] 0.061 | volasertib 0.033 | [2] 0.102 | epoxomicin 0.001 | [3] -0.026 | [4] -0.086 | [5] 0.032 | rosiglitazone 0.031 | [6] -0.053 | [7] -0.029

ANXA3 (UniProt P12429)
inactive: [1] -0.002 | volasertib -0.031 | [2] 0.033 | epoxomicin -0.018 | [3] 0.009 | [4] -0.012 | [5] -0.021 | rosiglitazone 0.036 | [6] -0.039 | [7] -0.011

AP1G1 isoform 2 (UniProt O43747)
inactive: [1] -0.019 | volasertib -0.235 | [2] 0.029 | epoxomicin -0.006 | [3] -0.068 | [4] -0.049 | [5] 0.042 | rosiglitazone 0.051 | [6] -0.051 | [7] -0.024

ANK3 (UniProt Q12955)
inactive: [1] -0.006 | volasertib -0.149 | [2] -0.051 | epoxomicin -0.086 | [3] -0.115 | [4] 0.088 | [5] -0.025 | rosiglitazone -0.069 | [6] 0.238 | [7] -0.139

ARHGAP17 (UniProt Q68EM7)
inactive: [1] -0.085 | volasertib -0.374 | [2] 0.107 | epoxomicin -0.048 | [3] -0.176 | [4] 0 | [5] 0.055 | rosiglitazone 0.099 | [6] 0.108 | [7] -0.088

API5 (UniProt Q9BZZ5)
inactive: [1] -0.02 | volasertib -0.074 | [2] -0.009 | epoxomicin 0.036 | [3] -0.037 | [4] -0.048 | [5] -0.011 | rosiglitazone 0.022 | [6] -0.067 | [7] 0.009

ARCN1 (UniProt P48444)
inactive: [1] -0.018 | volasertib -0.121 | [2] 0.032 | epoxomicin 0.057 | [3] -0.047 | [4] -0.011 | [5] 0.006 | rosiglitazone 0.025 | [6] -0.045 | [7] 0.014

APMAP (UniProt Q9HDC9)
inactive: [1] 0.023 | volasertib 0.025 | [2] -0.082 | epoxomicin 0.02 | [3] -0.016 | [4] -0.002 | [5] -0.034 | rosiglitazone -0.009 | [6] -0.073 | [7] 0.063

APRT (UniProt P07741)
inactive: [1] 0.043 | volasertib 0.117 | [2] -0.064 | epoxomicin 0.008 | [3] 0.027 | [4] 0.007 | [5] -0.008 | rosiglitazone 0.011 | [6] -0.081 | [7] -0.116

ARHGAP12 (UniProt Q8IWW6)
inactive: [1] 0.075 | volasertib -0.201 | [2] 0.098 | epoxomicin -0.043 | [3] -0.088 | [4] -0.073 | [5] -0.034 | rosiglitazone -0.025 | [6] -0.026 | [7] -0.063

ARFIP2 (UniProt P53365)
inactive: [1] 0.015 | volasertib -0.158 | [2] 0.139 | epoxomicin 0.014 | [3] -0.173 | [4] -0.1 | [5] 0.036 | rosiglitazone 0.029 | [6] 0.036 | [7] -0.338

APOL2 (UniProt J3KQL8)
inactive: [1] 0.036 | volasertib -0.056 | [2] -0.017 | epoxomicin 0.088 | [3] -0.017 | [4] 0.041 | [5] 0.03 | rosiglitazone 0.042 | [6] -0.138 | [7] 0.045

APEX1 (UniProt P27695)
inactive: [1] -0.033 | volasertib -0.034 | [2] 0.063 | epoxomicin 0.02 | [3] 0.021 | [4] -0.064 | [5] 0.019 | rosiglitazone 0.051 | [6] -0.011 | [7] 0.03

ANXA11 (UniProt P50995)
inactive: [1] -0.075 | volasertib -0.125 | [2] 0.073 | epoxomicin 0.063 | [3] -0.002 | [4] -0.091 | [5] 0.079 | rosiglitazone 0.022 | [6] -0.06 | [7] -0.056

APOE (UniProt P02649)
inactive: [1] 0.079 | volasertib 0.088 | [2] -0.067 | epoxomicin -0.133 | [3] 0.219 | [4] 0.03 | [5] -0.041 | rosiglitazone 0.004 | [6] 0.031 | [7] 0.056

APOC1 (UniProt P02654)
inactive: [1] 0.202 | volasertib 0.128 | [2] -0.038 | epoxomicin 0.243 | [3] 0.032 | [4] 0.089 | [5] 0.046 | rosiglitazone 0.006 | [6] -0.037 | [7] 0.196

ANKHD1 isoform 6 (UniProt Q8IWZ3)
inactive: [1] 0.086 | volasertib -0.513 | [2] 0.043 | epoxomicin -0.082 | [3] -0.073 | [4] 0.066 | [5] 0.018 | rosiglitazone 0.033 | [6] 0.205 | [7] -0.16

ANO10 (UniProt Q9NW15)
inactive: [1] -0.099 | volasertib -0.102 | [2] 0.025 | epoxomicin 0.027 | [3] 0.02 | [4] -0.011 | [5] 0.008 | rosiglitazone 0.065 | [6] -0.059 | [7] 0.102

ARHGDIB (UniProt P52566)
inactive: [1] 0.01 | volasertib 0.018 | [2] 0.028 | epoxomicin 0.044 | [3] -0.024 | [4] -0.02 | [5] -0.009 | rosiglitazone 0.027 | [6] -0.027 | [7] -0.001

ANLN (UniProt Q9NQW6)
inactive: [1] -0.021 | volasertib -0.03 | [2] 0.005 | epoxomicin 0.065 | [3] -0.059 | [4] -0.265 | [5] -0.133 | rosiglitazone -0.145 | [6] 0.158 | [7] -0.109

AP5Z1 (UniProt O43299)
inactive: [1] -0.012 | volasertib 0.094 | [2] 0.031 | epoxomicin -0.167 | [3] -0.062 | [4] -0.233 | [5] -0.042 | rosiglitazone 0.416 | [6] 0.007 | [7] -0.175

ARAF (UniProt P10398)
inactive: [1] 0.053 | volasertib 0.311 | [2] 0.129 | epoxomicin 0.013 | [4] -0.002 | [5] 0.054 | [6] -0.025 | [7] -0.132

AP1B1 (UniProt Q10567)
inactive: [1] -0.005 | volasertib -0.053 | [2] 0.009 | epoxomicin -0.012 | [3] -0.005 | [4] -0.001 | [5] 0.016 | rosiglitazone 0.013 | [6] -0.042 | [7] 0.008

ANXA7 (UniProt P20073)
inactive: [1] -0.077 | volasertib -0.097 | [2] 0.017 | epoxomicin 0.042 | [3] -0.003 | [4] -0.049 | [5] 0.031 | rosiglitazone -0.019 | [6] -0.071 | [7] -0.03

ARF1 (UniProt P84077)
inactive: [1] -0.006 | volasertib 0.013 | [2] 0.112 | epoxomicin -0.24 | [3] -0.132 | [5] 0.003 | rosiglitazone -0.058 | [6] -0.112

ANO6 isoform 2 (UniProt Q4KMQ2)
inactive: [1] 0.023 | volasertib -0.056 | [2] -0.02 | epoxomicin 0.08 | [3] 0.015 | [4] -0.051 | [5] -0.023 | rosiglitazone 0.054 | [6] -0.066 | [7] -0.192

Source: the supplement of paper PMC10849652
